In the supplement of paper PMC10849652:
The list shows a part of the results.

Amino acid sequences for entries named in this document (tags omitted). A change or cut given only in a name is not applied to a line headed by its entry.
UniProt P69891: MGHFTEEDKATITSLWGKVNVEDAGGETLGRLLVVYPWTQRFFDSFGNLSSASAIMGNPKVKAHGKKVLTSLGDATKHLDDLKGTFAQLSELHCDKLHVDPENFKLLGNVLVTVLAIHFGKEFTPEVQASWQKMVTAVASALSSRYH
UniProt Q13889: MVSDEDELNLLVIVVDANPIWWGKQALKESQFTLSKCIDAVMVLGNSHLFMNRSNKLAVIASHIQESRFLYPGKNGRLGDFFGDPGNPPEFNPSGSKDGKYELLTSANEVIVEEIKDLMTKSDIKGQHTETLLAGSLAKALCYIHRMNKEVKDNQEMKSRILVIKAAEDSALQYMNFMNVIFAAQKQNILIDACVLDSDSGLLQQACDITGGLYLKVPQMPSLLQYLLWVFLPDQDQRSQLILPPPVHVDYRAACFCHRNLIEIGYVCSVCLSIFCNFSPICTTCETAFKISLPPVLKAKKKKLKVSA
UniProt Q8NEC7: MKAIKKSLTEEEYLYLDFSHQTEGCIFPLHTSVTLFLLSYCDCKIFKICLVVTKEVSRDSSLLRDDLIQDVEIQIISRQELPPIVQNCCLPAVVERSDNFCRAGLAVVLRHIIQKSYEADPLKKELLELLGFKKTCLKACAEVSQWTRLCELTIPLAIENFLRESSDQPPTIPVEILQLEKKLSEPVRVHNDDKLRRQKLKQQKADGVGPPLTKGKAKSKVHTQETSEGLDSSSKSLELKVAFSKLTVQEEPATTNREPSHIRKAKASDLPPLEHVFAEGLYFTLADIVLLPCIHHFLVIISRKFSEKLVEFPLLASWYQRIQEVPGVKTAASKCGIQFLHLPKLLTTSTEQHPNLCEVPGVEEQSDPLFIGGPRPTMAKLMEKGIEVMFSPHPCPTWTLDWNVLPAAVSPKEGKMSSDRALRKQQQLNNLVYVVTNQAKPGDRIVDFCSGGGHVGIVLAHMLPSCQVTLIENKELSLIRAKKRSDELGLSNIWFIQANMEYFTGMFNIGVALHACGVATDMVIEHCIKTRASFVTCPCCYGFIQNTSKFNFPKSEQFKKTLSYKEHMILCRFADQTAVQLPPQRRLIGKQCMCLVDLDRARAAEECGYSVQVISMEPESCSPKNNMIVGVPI
UniProt Q8WW33: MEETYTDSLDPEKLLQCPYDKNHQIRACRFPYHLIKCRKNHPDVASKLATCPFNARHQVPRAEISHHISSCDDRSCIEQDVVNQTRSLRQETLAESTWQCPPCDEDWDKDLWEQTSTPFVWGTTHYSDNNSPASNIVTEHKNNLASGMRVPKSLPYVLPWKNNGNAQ
UniProt Q969F1: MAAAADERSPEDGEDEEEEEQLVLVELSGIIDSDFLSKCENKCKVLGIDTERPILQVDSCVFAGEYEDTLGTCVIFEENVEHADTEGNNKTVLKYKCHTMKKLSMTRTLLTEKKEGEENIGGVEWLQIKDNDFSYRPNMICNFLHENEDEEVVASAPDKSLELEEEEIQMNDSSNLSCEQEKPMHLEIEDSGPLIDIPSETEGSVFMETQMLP
UniProt O14929: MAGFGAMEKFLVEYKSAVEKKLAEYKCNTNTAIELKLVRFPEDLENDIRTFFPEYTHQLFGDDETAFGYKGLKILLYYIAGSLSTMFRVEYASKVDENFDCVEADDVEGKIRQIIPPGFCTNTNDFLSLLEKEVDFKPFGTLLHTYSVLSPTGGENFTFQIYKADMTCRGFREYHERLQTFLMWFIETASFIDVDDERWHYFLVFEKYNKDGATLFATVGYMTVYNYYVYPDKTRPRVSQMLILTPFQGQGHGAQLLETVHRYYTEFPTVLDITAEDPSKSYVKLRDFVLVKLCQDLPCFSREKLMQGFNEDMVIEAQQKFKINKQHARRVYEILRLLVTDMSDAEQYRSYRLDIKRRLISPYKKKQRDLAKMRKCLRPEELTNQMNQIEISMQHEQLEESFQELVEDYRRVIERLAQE
UniProt Q16836: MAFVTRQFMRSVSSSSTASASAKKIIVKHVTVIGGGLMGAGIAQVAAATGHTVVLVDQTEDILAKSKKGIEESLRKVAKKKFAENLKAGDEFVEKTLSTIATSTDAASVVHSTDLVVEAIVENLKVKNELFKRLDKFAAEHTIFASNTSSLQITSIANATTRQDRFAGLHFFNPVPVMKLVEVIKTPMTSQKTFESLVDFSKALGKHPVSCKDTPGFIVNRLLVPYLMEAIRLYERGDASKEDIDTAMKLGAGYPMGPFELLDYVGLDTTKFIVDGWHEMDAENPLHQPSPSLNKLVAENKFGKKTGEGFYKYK
UniProt Q9NVX0: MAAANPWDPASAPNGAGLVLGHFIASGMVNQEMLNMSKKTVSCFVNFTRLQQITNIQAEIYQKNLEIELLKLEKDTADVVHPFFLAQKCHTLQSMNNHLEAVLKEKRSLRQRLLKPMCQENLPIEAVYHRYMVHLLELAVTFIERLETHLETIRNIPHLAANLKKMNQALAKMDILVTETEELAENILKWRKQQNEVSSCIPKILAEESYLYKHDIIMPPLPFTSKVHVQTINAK
UniProt Q9Y5Q8: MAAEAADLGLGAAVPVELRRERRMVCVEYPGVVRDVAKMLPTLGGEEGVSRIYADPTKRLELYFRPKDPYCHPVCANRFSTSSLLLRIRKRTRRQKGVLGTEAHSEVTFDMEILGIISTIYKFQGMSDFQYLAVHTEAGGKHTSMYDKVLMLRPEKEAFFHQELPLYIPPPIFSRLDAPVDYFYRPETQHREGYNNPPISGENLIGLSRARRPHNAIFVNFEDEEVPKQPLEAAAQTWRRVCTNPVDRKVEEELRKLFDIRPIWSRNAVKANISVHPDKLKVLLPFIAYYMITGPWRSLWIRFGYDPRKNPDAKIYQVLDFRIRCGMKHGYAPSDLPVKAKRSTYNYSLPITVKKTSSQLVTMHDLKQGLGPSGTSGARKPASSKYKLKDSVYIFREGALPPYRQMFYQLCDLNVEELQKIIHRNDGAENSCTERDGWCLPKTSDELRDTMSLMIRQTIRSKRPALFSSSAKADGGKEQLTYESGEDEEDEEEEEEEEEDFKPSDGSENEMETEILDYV
UniProt P78417: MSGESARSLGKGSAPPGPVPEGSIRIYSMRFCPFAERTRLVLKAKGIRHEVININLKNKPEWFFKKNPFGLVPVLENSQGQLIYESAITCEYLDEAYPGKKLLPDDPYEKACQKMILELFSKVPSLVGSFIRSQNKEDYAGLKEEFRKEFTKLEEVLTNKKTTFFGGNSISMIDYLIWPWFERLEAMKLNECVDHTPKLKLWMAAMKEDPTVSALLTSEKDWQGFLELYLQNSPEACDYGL
UniProt Q4G148: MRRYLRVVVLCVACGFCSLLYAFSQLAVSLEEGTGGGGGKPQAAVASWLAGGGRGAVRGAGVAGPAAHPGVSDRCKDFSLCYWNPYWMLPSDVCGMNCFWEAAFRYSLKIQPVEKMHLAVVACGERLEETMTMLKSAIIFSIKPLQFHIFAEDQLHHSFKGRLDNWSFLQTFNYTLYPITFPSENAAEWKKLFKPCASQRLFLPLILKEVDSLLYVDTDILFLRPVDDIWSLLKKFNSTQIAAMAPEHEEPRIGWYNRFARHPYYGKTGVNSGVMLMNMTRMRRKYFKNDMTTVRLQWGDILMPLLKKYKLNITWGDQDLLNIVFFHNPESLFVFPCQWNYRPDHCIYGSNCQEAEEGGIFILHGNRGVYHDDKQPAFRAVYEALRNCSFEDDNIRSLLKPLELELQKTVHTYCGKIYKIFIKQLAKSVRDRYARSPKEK
UniProt P43250, whole entry, looked up: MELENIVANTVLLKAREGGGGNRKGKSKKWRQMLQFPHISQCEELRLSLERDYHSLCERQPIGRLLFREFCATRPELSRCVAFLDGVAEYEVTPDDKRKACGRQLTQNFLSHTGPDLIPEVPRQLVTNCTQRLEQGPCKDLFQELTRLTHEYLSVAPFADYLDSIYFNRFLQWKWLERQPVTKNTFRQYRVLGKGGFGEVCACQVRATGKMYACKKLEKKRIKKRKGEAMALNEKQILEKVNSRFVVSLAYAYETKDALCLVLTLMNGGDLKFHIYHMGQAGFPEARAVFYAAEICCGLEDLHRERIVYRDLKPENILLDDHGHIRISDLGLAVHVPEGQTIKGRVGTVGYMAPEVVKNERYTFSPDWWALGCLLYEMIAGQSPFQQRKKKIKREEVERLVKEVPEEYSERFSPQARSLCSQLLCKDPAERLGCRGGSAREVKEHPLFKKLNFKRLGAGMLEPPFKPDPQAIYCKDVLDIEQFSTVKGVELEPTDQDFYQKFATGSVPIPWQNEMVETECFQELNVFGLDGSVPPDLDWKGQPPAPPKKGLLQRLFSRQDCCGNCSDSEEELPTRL
UniProt P10412, whole entry, looked up: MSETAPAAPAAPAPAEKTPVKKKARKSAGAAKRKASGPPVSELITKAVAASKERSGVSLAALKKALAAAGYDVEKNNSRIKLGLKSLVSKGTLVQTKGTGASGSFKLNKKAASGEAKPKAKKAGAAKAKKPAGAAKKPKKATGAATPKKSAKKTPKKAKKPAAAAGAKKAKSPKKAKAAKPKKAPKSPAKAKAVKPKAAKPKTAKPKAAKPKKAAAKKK
UniProt P21266: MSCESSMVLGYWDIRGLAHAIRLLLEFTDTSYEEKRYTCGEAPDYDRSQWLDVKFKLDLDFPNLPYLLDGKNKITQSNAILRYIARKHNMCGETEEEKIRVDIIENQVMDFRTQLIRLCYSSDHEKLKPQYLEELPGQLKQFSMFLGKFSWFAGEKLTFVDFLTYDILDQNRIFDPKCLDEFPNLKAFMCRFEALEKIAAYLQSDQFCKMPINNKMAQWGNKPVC
UniProt Q9H6D7: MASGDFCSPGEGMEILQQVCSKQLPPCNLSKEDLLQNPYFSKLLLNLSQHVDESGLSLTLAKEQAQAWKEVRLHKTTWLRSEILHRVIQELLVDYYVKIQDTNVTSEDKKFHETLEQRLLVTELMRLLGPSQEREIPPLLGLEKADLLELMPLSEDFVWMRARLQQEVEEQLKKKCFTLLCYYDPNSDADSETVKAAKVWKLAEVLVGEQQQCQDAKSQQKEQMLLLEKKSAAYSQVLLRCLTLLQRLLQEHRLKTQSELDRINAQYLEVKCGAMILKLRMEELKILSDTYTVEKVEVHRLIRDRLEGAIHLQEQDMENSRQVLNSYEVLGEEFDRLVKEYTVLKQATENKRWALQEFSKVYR

Experiments:
Test in all cases: log2 fold change, soluble protein after heating vs DMSO (PISA); higher = thermal stabilisation; K562 lysate, 10 uM; active = over 0.2 and 3.5 SD of the protein, either way, in both replicates (recomputed)
[1] = compound: C=CC(=O)N1CCC[C@@H](n2nc(-c3ccc(Oc4ccccc4)cc3)c3c(N)ncnc32)C1 [ibrutinib]
Method in brief: (§1)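 Dounce homogenisation of K562 pellets in PBS pH 7.4 with 1 mM MgCl2 produced a crude extract, used at 1 mg/mL protein. Exposure to 10 μM compound lasted 30 min, and aliquots were then heated for 3 min across 48°C-58°C, pooled and brought to 0.5% NP-40 at 4°C. The supernatant after 21,000xg for 90 min was quantified by TMTpro 16plex LC-MS/MS with channel sums equalised. Duplicate values are given as log-two fold change in thermal stability relative to solvent controls.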

[2] = compound: CC(=O)c1cnc2ccc(-c3cc(Cl)c(O)c(Cl)c3)nc2c1N[C@H]1CC[C@H](CN(C)C)CC1
Method in brief: as §1

[3] = compound: CC(C)(C)Cn1c(N)nc2ccc(-c3[nH]c(C(C)(C)C)nc3-c3ccc(F)cc3)nc21 [ralimetinib]
Method in brief: as §1

[4] = compound: CC(C)(O)CC(=O)NCCn1ccc2ncnc(Nc3ccc(Oc4cccc(C(F)(F)F)c4)c(Cl)c3)c21
Method in brief: as §1

[5] = compound: CC(C)C1=C2N=C(C=C(N2N=C1)NCC3=CC=CC=C3)NCCCCCCN
Method in brief: as §1

[6] = compound: CC1=C(C(CC(=O)N1)C2=CC=C(C=C2)C(F)(F)F)C(=O)NC3=C(C=C4C(=C3)C=NN4)F
Method in brief: as §1

[7] = compound: CC1=C(C2=C(C=C1)C(=O)C3=CC=CC=C3N2CCCN)C
Method in brief: as §1

[8] = compound: CC1=C(C=C(C=C1)NC(=O)C2=CC(=CC=C2)C(C)(C)C#N)NC3=CC4=C(C=C3)N=CN(C4=O)C
Method in brief: as §1

[9] = compound: CC1=C(C=C(C=C1)NC(=O)C2=CC(=CC=C2)N(C)C)NC(=O)C3=CC=C(C=C3)O
Method in brief: as §1

[10] = compound: CC1=CC=C(C=C1)SC2=C3C=C(SC3=CN=C2)C(=O)N
Method in brief: as §1

[11] = compound: CCCS(=O)(=O)Nc1ccc(F)c(C(=O)c2c[nH]c3ncc(-c4ccc(Cl)cc4)cc23)c1F [vemurafenib]
Method in brief: as §1

[12] = compound: CCCS(=O)(=O)Nc1ccc(F)c(C(=O)c2c[nH]c3ncc(Cl)cc23)c1F
Method in brief: as §1

[13] = compound: CCN(CCCOc1ccc2c(Nc3cc(CC(=O)Nc4cccc(F)c4)[nH]n3)ncnc2c1)CCOP(=O)(O)O [barasertib]
Method in brief: as §1

[14] = compound: CC[C@@H]1C(=O)N(C)c2cnc(Nc3ccc(C(=O)NC4CCN(C)CC4)cc3OC)nc2N1C1CCCC1
Method in brief: as §1

[15] = compound: CC[C@@H]1C(=O)N(C)c2cnc(Nc3ccc(C(=O)N[C@H]4CC[C@H](N5CCN(CC6CC6)CC5)CC4)cc3OC)nc2N1C(C)C [volasertib]
Method in brief: as §1

[16] = compound: CCn1c(C(=O)N(C2CC2)C2CC2)cc2c3c(ncn3C)c(Nc3cc(C)n(C)n3)nc21
Method in brief: as §1

[17] = compound: CCn1cc(-c2ccnc3[nH]c(-c4cccc(CN(C)C)c4)cc23)c(-c2ccc(NC(=O)N(C)C)cc2)n1
Method in brief: as §1

[18] = compound: CN1CCC(CNc2ccc3ncc(-c4cccc(OC(F)(F)F)c4)n3n2)CC1
Method in brief: as §1

[19] = compound: CN1CCN(CCOc2cc(OC3CCOCC3)c3c(Nc4c(Cl)ccc5c4OCO5)ncnc3c2)CC1 [saracatinib]
Method in brief: as §1

[20] = compound: CN1CCN(c2nc(C3=C(c4c[nH]c5ccccc45)C(=O)NC3=O)c3ccccc3n2)CC1 [sotrastaurin]
Method in brief: as §1

Measured: log2 fold change

HBG1 (UniProt P69891)
inactive: [1] 0.062 | [2] -0.007 | [3] -0.003 | [4] -0.027 | [5] -0.014 | [6] -0.053 | [7] 0.006 | [8] 0.068 | [9] -0.013 | [10] 0.019 | [11] 0.006 | [12] -0.003 | [13] 0.079 | [14] 0.023 | [15] 0.051 | [16] -0.001 | [17] -0.015 | [18] -0.041 | [19] -0.007 | [20] -0.047

GTF2H3 (UniProt Q13889)
inactive: [1] -0.012 | [2] 0.021 | [3] -0.003 | [4] -0.045 | [5] -0.01 | [6] 0.033 | [7] -0.015 | [8] 0.023 | [9] 0.033 | [10] -0.021 | [11] 0.005 | [12] -0.001 | [13] 0.006 | [14] -0.015 | [15] -0.036 | [16] -0.031 | [17] -0.076 | [18] 0.032 | [19] -0.023 | [20] 0.019

GSTCD (UniProt Q8NEC7)
inactive: [1] 0.057 | [2] -0.01 | [3] 0.033 | [4] -0.023 | [5] -0.038 | [6] 0.044 | [7] -0.04 | [8] 0.051 | [9] -0.003 | [10] 0.011 | [11] 0.028 | [12] 0.057 | [13] -0.039 | [14] -0.018 | [15] -0.05 | [16] 0.011 | [17] -0.055 | [18] -0.015 | [19] 0.034 | [20] 0.037

GTSF1 (UniProt Q8WW33)
inactive: [1] 0.038 | [2] 0.021 | [3] -0.008 | [4] 0.044 | [5] -0.025 | [6] -0.002 | [7] 0.005 | [8] 0.065 | [9] -0.043 | [10] -0.023 | [11] -0.018 | [12] 0.007 | [13] 0.045 | [14] 0.11 | [15] 0.05 | [16] 0.028 | [17] 0.037 | [18] -0.012 | [19] 0.011 | [20] -0.033

GTF3C6 (UniProt Q969F1)
inactive: [1] 0.083 | [2] -0.019 | [3] 0 | [4] -0.083 | [5] 0.029 | [6] 0.02 | [7] -0.009 | [8] 0.054 | [9] 0.023 | [10] -0.036 | [11] -0.041 | [12] -0.01 | [13] -0.019 | [14] 0.039 | [15] 0.017 | [16] 0.016 | [17] 0.164 | [18] -0.096 | [19] 0.003 | [20] 0.008

HAT1 (UniProt O14929)
inactive: [1] -0.005 | [2] -0.015 | [3] 0.021 | [4] -0.009 | [5] 0.005 | [6] 0.007 | [7] -0.004 | [8] 0.022 | [9] 0.014 | [10] -0.028 | [11] 0.007 | [12] 0.004 | [13] -0.017 | [14] 0.028 | [15] 0.023 | [16] -0.028 | [17] -0.002 | [18] 0.042 | [19] 0.021 | [20] 0.022

HADH isoform 2 (UniProt Q16836)
inactive: [1] -0.004 | [2] 0.02 | [3] -0.023 | [4] -0.011 | [5] -0.036 | [6] 0.013 | [7] -0.045 | [8] -0.039 | [9] 0.028 | [10] 0.004 | [11] -0.032 | [12] -0.022 | [13] -0.049 | [14] 0.002 | [15] 0.004 | [16] 0.009 | [17] 0.066 | [18] -0.054 | [19] -0.096 | [20] 0.004

2 records picked at random from those above, as already listed:
HAT1 (UniProt O14929)
inactive: [1] -0.005 | [2] -0.015 | [3] 0.021 | [4] -0.009 | [5] 0.005 | [6] 0.007 | [7] -0.004 | [8] 0.022 | [9] 0.014 | [10] -0.028 | [11] 0.007 | [12] 0.004 | [13] -0.017 | [14] 0.028 | [15] 0.023 | [16] -0.028 | [17] -0.002 | [18] 0.042 | [19] 0.021 | [20] 0.022

GTF3C6 (UniProt Q969F1)
inactive: [1] 0.083 | [2] -0.019 | [3] 0 | [4] -0.083 | [5] 0.029 | [6] 0.02 | [7] -0.009 | [8] 0.054 | [9] 0.023 | [10] -0.036 | [11] -0.041 | [12] -0.01 | [13] -0.019 | [14] 0.039 | [15] 0.017 | [16] 0.016 | [17] 0.164 | [18] -0.096 | [19] 0.003 | [20] 0.008

Additional results:

HAUS2 (UniProt Q9NVX0)
inactive: [1] 0.145 | [2] 0.1 | [3] 0.054 | [4] 0.058 | [5] 0.003 | [6] 0.026 | [7] -0.079 | [8] -0.017 | [9] 0.023 | [10] -0.021 | [11] -0.076 | [12] -0.005 | [13] 0.097 | [14] 0.018 | [15] 0.038 | [16] 0.036 | [17] 0.141 | [18] -0.089 | [19] 0.048 | [20] -0.007

GTF3C5 isoform 3 (UniProt Q9Y5Q8)
inactive: [1] 0.029 | [2] 0.034 | [3] 0.009 | [4] 0.005 | [5] -0.016 | [6] 0.025 | [7] -0.007 | [8] 0.015 | [9] 0.003 | [10] 0.008 | [11] 0.024 | [12] 0.009 | [13] -0.011 | [14] 0.006 | [15] -0.018 | [16] 0.051 | [17] -0.025 | [18] 0.017 | [19] 0.031 | [20] -0.033

GSTO1 (UniProt P78417)
inactive: [1] -0.036 | [2] 0.035 | [3] -0.007 | [4] 0.031 | [5] -0.009 | [6] -0.02 | [7] 0.015 | [8] -0.019 | [9] -0.003 | [10] 0.018 | [11] -0.053 | [12] -0.017 | [13] -0.05 | [14] 0.007 | [15] 0.025 | [16] 0.043 | [17] 0.121 | [18] -0.054 | [19] 0 | [20] -0.016

GXYLT1 (UniProt Q4G148)
inactive: [1] -0.016 | [2] -0.045 | [3] 0.031 | [4] -0.017 | [5] -0.029 | [6] 0.078 | [7] -0.169 | [8] -0.07 | [9] -0.028 | [10] -0.054 | [11] 0.003 | [12] 0.004 | [13] -0.07 | [14] -0.149 | [15] 0.007 | [16] -0.012 | [17] -0.113 | [18] -0.009 | [19] -0.116 | [20] -0.004

GRK6 isoform 2 (UniProt P43250)
inactive: [1] 0.083 | [2] 0.04 | [3] -0.073 | [4] -0.068 | [5] -0.036 | [6] 0.021 | [7] -0.092 | [8] 0.048 | [9] -0.049 | [10] -0.005 | [11] 0.102 | [12] 0.046 | [13] 0.042 | [14] 0.11 | [15] 0.006 | [16] -0.032 | [17] -0.136 | [19] -0.056 | [20] -0.001
active: [18] 0.614

GSTZ1 (UniProt G3V4T6)
inactive: [1] 0 | [2] 0 | [3] 0.014 | [4] -0.019 | [5] 0.004 | [6] 0.01 | [7] 0.036 | [8] -0.02 | [9] -0.003 | [10] -0.016 | [11] -0.013 | [12] -0.024 | [13] 0.018 | [14] -0.101 | [15] -0.02 | [16] -0.029 | [17] -0.116 | [18] 0.087 | [19] -0.012 | [20] -0.018

H1-4 (UniProt P10412)
inactive: [1] 0.017 | [2] -0.028 | [3] -0.017 | [4] -0.032 | [5] 0.028 | [6] 0.01 | [7] 0.146 | [8] 0.029 | [9] -0.002 | [10] -0.057 | [11] 0.012 | [12] 0.012 | [13] -0.031 | [14] 0.089 | [15] 0.007 | [16] -0.092 | [17] -0.286 | [18] 0.073 | [19] 0.013 | [20] -0.029

GSTM3 (UniProt P21266)
inactive: [1] 0.139 | [2] 0.061 | [3] -0.065 | [4] -0.017 | [5] 0 | [6] 0.027 | [7] -0.002 | [8] 0.045 | [9] -0.022 | [10] 0.072 | [11] 0.042 | [12] 0.098 | [13] 0.075 | [14] 0 | [15] 0.024 | [16] -0.051 | [17] 0.027 | [18] -0.057 | [19] 0.043 | [20] 0.023

HAUS4 (UniProt Q9H6D7)
inactive: [1] 0.04 | [2] -0.033 | [3] 0.003 | [4] 0.01 | [5] -0.004 | [6] 0.006 | [7] -0.016 | [8] -0.008 | [9] 0.057 | [10] -0.01 | [11] 0.007 | [12] 0.044 | [13] 0.107 | [14] -0.047 | [15] -0.039 | [16] 0.015 | [17] -0.045 | [18] -0.04 | [19] 0.022 | [20] 0.02
